# Laboratory results: PubChem BioAssay AID493014 (National Center for Advancing Translational Sciences (NCATS), 2011)
# About 170 (0.05%) of roughly 340,000 compounds were called active. The inconclusive results got no clear call from the source; some entries with a clear call stand among them for comparison. The call rests on the fitted dose curve; in most records, active means well fitted inhibition curve with a large enough effect in the signal ratio, with a control signal flat (not every such curve was filed as active); inconclusive means small, poorly fitted or top-dose-only effect, or effect the other way, or a change in a side signal; inactive means flat fitted curve, though single readings scatter; the % refers to the signal ratio. Potencies beside an inconclusive call are fits to weak or partial responses and may not hold up.
# Assay: qHTS Assay to Find Inhibitors of Chronic Active B-Cell Receptor Signaling;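 on activity change, negative = inhibition: plate controls were basal doxycycline-induced cells for no effect and cells given 10 µM MG132 for full effect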
# Conditions: ABC-DLBCL IkBa-CBG/CBR reporter, luminescence ratio (green luciferase fused to IkBa over red control in TMD8 lymphoma cells), 4 h; activity change, negative = inhibition: at 46.1 µM (top of the series)
# Outline: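 TMD8 ABC-DLBCL cells carrying doxycycline-inducible green luciferase fused to IkappaBalpha plus unfused red luciferase were exposed to compounds (up to 46 uM) for 4 hrs at 37C. Activity came from the overlap-corrected green/red luminescence ratio.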
# Potency means the concentration at half of the fitted maximal effect.
Compound,"activity change, negative = inhibition",Potency
COc1ccc(NC(=O)C2CCN(C(=O)Nc3ccccc3)CC2)cc1S(=O)(=O)N(C)C,inconclusive: 1.72%,
Cc1noc(C)c1COC(=O)c1cccc(S(=O)(=O)N2CCOCC2)c1,inconclusive: -1.94%,
Cc1ccc(NS(=O)(=O)c2cc(C(=O)NCCSC3CCCCC3)ccc2C)cc1,,"inconclusive: 23.1 µM [falling, single point]"
COc1ccc(Oc2nc3c(c(=O)n(C)c(=O)n3C)n2Cc2ccccc2)cc1,inactive,
CN(C)C(=O)C1C2NC(=S)N(c3ccc(Cl)cc3)C1(C)Oc1ccc(Cl)cc12 (configuration not stated),inconclusive: -13.9%,
COc1cc(C(=O)COC(=O)c2ccncc2)cc(OC)c1OC,,"inconclusive: 29.1 µM [falling, single point]"
CCOC(=O)c1c(C)n(-c2ccc(C)cc2)c2ccc(OCC(O)CNCCCO)cc12 (configuration not stated),inactive,
c1ccc(-c2cn3nc(-c4ccccc4)cnc3n2)cc1,,"inconclusive: 5.8 µM [rising, full curve, poor fit]"
c1ccc(CCn2nnnc2C(c2cccnc2)N2CCN(c3nc4ccccc4s3)CC2)cc1 (configuration not stated),inconclusive: -1.06%,
COc1ccc(NC(=S)Nc2ccccc2SC)c(OC)c1,inactive,
Cc1cccc(NC(=O)CSc2nc(C3CC3)nc3ccccc23)c1,,"inconclusive: 1.26 µM [falling, full curve, poor fit]"
COc1cc2c(cc1OC)-c1cc(NC3CCCCCCC3)nc(=O)n1CC2,,"inconclusive: 11.2 µM [falling, partial curve]"
O=C(CNc1cccc2ccccc12)N/N=C/c1ccc(C(=O)O)cc1,inactive,
Cc1nnc(SCC(=O)NCc2ccco2)[nH]c1=O,inconclusive: 5.18%,
C[C@H](CO)N1C[C@H](C)[C@@H](CN(C)Cc2ccccc2)Oc2c(NC(=O)Cc3ccccc3)cccc2C1=O,inconclusive: 9.51%,
CCNC(=O)NC(=O)C(C)Sc1ncc(C(F)(F)F)cc1Cl (configuration not stated),inconclusive: 7.24%,
COc1ccc(/C=N/OCC(=O)N(Cc2ccccc2)c2ccccc2C(=O)O)cc1,inconclusive: 12.2%,
Cc1nn(CCc2nc(-c3ccco3)cs2)c2[nH]c(=O)cc(C(F)(F)F)c12,inactive,
O=[N+]([O-])c1ccc(/C=C/c2ccncc2)cc1,inconclusive: -1.42%,
Cc1ccc(C(=O)Nc2ccccc2N2CCCC2)cc1,inconclusive: -0.187%,
COc1ccccc1-c1cc(C(=O)Nc2cc(C)n(Cc3ccc(Cl)cc3)n2)no1,,"inconclusive: 0.501 µM [falling, full curve]"
O=C(c1cccc(F)c1)N1CCN(Cc2ccco2)CC1,inactive,
